# In patent US20160046678A1 (ZYNGENIA, published 2016):
# Sequences of proteins named here, by UniProt entry; tags and fusion partners are left off. Residues count along the entry.
# UniProt P08069, residues 31-932: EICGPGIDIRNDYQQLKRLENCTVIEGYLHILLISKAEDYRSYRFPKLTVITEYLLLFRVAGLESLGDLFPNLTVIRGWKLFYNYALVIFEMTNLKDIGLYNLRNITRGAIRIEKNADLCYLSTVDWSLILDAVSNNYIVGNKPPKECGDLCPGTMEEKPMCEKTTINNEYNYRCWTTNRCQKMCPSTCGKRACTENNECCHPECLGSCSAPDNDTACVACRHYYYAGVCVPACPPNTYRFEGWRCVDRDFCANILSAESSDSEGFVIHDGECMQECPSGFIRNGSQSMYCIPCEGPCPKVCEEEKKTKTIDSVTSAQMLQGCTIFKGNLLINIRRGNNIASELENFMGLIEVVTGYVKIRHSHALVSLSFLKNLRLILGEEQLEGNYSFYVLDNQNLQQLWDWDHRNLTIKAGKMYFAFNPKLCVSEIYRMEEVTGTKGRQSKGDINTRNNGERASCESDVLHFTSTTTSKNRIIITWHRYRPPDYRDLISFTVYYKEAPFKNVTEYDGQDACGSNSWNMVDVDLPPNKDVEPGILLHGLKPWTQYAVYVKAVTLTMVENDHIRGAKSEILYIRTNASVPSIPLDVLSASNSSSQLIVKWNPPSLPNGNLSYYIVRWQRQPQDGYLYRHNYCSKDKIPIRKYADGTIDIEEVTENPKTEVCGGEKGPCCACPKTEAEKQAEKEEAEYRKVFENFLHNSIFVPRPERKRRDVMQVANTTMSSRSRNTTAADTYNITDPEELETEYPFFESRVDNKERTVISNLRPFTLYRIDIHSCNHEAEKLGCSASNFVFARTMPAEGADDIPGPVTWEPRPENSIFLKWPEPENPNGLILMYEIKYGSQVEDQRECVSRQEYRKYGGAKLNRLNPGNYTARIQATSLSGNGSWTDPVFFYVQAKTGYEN
# No constants are given. Whether binding was seen depends on the method and setting. Some binding calls cover weakened binding; strength is not graded here.
# Target: IGF1R (UniProt P08069)
# Assay: MRD identification, Example 48
row,Binder,binding
1,APLLCLEFPELCFEDI [IGF364],binds
2,APSLCLEFRELCFEDY [IGF377],binds
3,VPSLCLEFQELCFTTE [IGF349],binds
4,DPYLCLEFEELCFRFV [IGF359],binds
5,RPSLCLEFRELCFDTL [IGF366],binds
6,DSRLCAEFPELCFEDV [IGF351],binds
7,MELLCFEFSELCFGSH [IGF357],binds
8,AHALCLEFSELCFDVT [IGF369],binds
9,YMRLCYEFSELCFHAS [IGF380],binds
10,TPSLCVEFRELCFDDL [IGF384],binds
11,AHWLCLEFKELCFGND [IGF347],binds
12,ADRLCREFSELCFDVV [IGF386],binds
13,MPALCLEFRELCFEDP [IGF379],binds
14,VPSLCLEFADLCFHDI [IGF378],binds
15,DLHLCREFSELCFSSP [IGF375],binds
16,AYALCHEFQELCFETT [IGF391],binds
17,RHPLCVEFPELCFVDY [IGF361],binds
18,YLALCYEFRELCFGDQ [IGF363],binds
19,YLHLCREFTELCFDEG [IGF346],binds
20,DVKLCQEFPELCFESY [IGF389],binds
21,TVALCKEFPELCFDIV [IGF358],binds
22,VPYLCLEFAELCFQVD [IGF355],binds

row,Binder,binding
1,AGALCREFAELCFHNH [IGF371],binds
2,TPSLCLEFPELCFHGT [IGF376],binds
3,RPVLCIEFPELCFNET [IGF388],binds
4,AATLCLEFSELCFDMS [IGF352],binds
5,TPPLCFEFPELCFHLS [IGF372],binds
6,VPALCFEFAELCFHIE [IGF390],binds
7,APSLCWEFKELCFDSE [IGF367],binds
8,AHPLCLEFPVLCFDDE [IGF387],binds
9,APSLCTEFRELCFDII [IGF381],binds
10,QEALCIEFHELCFEEY [IGF385],binds
11,VPSLCFEFEELCFDWS [IGF348],binds
12,VHPLCIEFPALCFDTR [IGF362],binds
13,TPALCLEFAELCFEDS [IGF360],binds
14,PHPLCLEFPELCFGAE [IGF350],binds
15,VHYLCLEFQELCFDEL [IGF365],binds
16,VPPLCVEFSELCFDAP [IGF356],binds
17,IPHLCKEFPELCFEQR [IGF353],binds
18,SERLCLEFAELCFGHG [IGF373],binds
19,TQYLCIEFAELCFDTI [IGF370],binds
20,VPPLCLEFAELCFYAD [IGF382],binds
21,SYLLCREFSELCFDKT [IGF354],binds
22,AHWLCLEFPELCFDKL [IGF374],binds

# The remaining lines, values ahead:
row,binding,Binder
1,binds,DRLLCSEFYELCFDDN [IGF413]
2,binds,YSSLCLEFSELCFDQM [IGF416]
3,binds,PPSLCLEFPELCFHRS [IGF405]
4,binds,IPPLCLEFWELCFDER [IGF410]
5,binds,VQPLCLEFSELCFDSA [IGF407]
6,binds,IPALCIEFSELCFWPS [IGF406]
7,binds,ADALCAEFKELCFNIK [IGF399]
8,binds,RPALCGEFKELCFDGA [IGF417]
9,binds,PHRLCIEFPELCFDVV [IGF397]
10,binds,AGALCAEFPELCFGGT [IGF404]
11,binds,AHRLCMEFAELCFGNA [IGF395]
12,binds,PHPLCREFPDLCFDHS [IGF411]
13,binds,APPLCLEFRELCFGEQ [IGF421]
14,binds,QHLLCIEFNELCFNDV [IGF393]
15,binds,DEQLCLEFVELCFEQT [IGF401]
16,binds,EHILCQEFSELCFNRD [IGF408]
17,binds,VPPLCLEFTELCFIID [IGF409]
18,binds,PAALCLEFSELCFTQQ [IGF414]
19,binds,AALLCHEFTELCFLEA [IGF392]
20,binds,VYALCREFSELCFYGN [IGF402]
21,binds,GHKLCTEFIELCFDVN [IGF400]
22,binds,IPPLCLEFWELCFDAP [IGF394]
23,binds,AQALCLEFMELCFDVR [IGF398]
24,binds,RPSLCQEFVELCFEEA [IGF396]
25,binds,PHWLCLEFAELCFGSG [IGF420]
26,binds,PHWLCEEFEELCFEAI [IGF412]
27,binds,YNALCNEFIELCFHVN [IGF419]
